Assay results reported in publication PMC3033906.
Where a chain is given by its changes, count along the chain named. In names and notes the source's numbering stands. Results are given in words; binding and its absence hold for the method and conditions named. Binding seen in cells or lysates may run through a third protein. Some results given as binding are weak or reduced against the parent protein; the word gives no strength. Where a sequence is shown, tags or fusion partners need not be part of it. Each block holds one binder with its values, some of them ahead of it.

By UniProt entry, the sequences of proteins in these tests, tags left out.
UniProt Q8C863: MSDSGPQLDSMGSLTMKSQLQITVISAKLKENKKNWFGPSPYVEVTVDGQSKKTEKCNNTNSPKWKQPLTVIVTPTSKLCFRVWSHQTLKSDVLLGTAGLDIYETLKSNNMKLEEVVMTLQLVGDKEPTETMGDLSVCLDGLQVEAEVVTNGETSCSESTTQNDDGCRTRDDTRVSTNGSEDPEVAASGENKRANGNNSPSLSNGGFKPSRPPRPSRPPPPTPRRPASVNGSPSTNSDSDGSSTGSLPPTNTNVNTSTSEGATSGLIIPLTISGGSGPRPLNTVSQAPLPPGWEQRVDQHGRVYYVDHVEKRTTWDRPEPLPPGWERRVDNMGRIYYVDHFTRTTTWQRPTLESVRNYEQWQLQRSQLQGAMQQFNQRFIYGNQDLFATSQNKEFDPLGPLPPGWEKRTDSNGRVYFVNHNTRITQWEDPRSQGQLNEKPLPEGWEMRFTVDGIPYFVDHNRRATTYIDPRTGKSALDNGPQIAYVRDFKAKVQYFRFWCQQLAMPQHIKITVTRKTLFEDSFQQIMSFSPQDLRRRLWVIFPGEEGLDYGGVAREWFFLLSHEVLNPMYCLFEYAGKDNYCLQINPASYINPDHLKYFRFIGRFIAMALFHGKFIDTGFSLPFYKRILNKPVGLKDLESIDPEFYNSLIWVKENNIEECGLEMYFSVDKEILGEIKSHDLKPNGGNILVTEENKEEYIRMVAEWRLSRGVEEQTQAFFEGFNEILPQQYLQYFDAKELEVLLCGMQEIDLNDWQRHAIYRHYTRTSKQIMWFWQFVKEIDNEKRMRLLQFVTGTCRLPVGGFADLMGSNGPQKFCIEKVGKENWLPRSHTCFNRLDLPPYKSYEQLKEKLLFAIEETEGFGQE

Experiments:
rLuc-Itch = rLuc-Itch (UniProt Q8C863); assay: FRET or BRET; BRET in living HEK-293T cells co-transfected with a constant amount of rLuc-Itch and various amounts of GFP fusion; coelenterazine 5 µM; saturation curves
GST-Itch WT = GST-Itch WT (UniProt Q8C863); assay: pull-down; 20 µg GST-fusion protein on glutathione Sepharose 4B incubated with extracts of transfected HEK-293T cells, 16 hours at 4°C, 20 mM Hepes pH 7.4, 150 mM NaCl, 1% Triton X-100; blot with anti-myc or anti-GFP; densitometry of four experiments for GST-Itch-WW; only the target purified

binding (rLuc-Itch): binds
B1: GFP-LITAF Y61A (protein, UniProt Q9JLJ0 1-161)
chain: MSAPGPYQAAAGPSVVPTAPPTYEETVGVNSYYPTPPAPMPGPATGLITGPDGKGMNPPSAYTQPVPVPNANAIAVQTVYVQQPVSFYDRPVQMCCPSCSKMIVTQLSYNAGALTWLSCGSLCLLGCVAGCCFIPFCVDALQDVDHYCPNCKALLGTYKRL

binding (rLuc-Itch): no binding
binding (GST-Itch WT): no binding
B2: GFP-LITAF Y23,61A (protein, UniProt Q9JLJ0 1-161)
chain: B1 chain with Y23A
